At least one structure is not confirmed: it was looked up by name or label, or the drawing left a doubt.
Test system: human keratinocytes (HaCaT)
Test: Antioxidizing power (free radical scavenging) in H2O2-treated keratinocytes with the DCFH-DA fluorescent probe
Format: cell-based
Conditions: 24 h treatment, 0.05 mg/ml ebselen, extract of Emblica, extract of Edelweiss, 0.1 μg/ml tocotrienol, idebenone, N-acetylcysteine, N=6, FIG. 1
Text: To do this, the inventors used an in vitro test on a model of human keratinocytes, which consisted in the in situ generation of free radicals in the presence and absence of substances with anti-free radical activity, and then in quantification, with the aid of a fluorescent probe of the type dichlorofluorescein diacetate (DCFH-DA), of the free radicals still present in the cells. This probe is well known to those skilled in the art and its use makes it possible to measure the amount of free radicals present as a function of the fluorescence signal emitted.
The antioxidizing power according to the invention, which corresponds in practice to the free radical scavenging power of each substance with anti-free radical activity or an association of such substances, is obtained using the following formula (A): antioxidizing power=([…])×100 (A) in which: Δ control=difference in fluorescence values between the control not treated with an active substance or an association of such substances, and the control treated with the reference oxidizing agent hydrogen peroxide (H2O2); Δ test=difference in fluorescence values between the control treated with an active substance or an association of active substances, and the control treated with H2O2. […]
The fluorescence emitted is then directly proportional to the concentration of free radicals that has reacted in the medium. […]

O=c1c2ccccc2[se]n1-c1ccccc1 [ebselen, 2-phenyl-1,2-benziselenazol-3(2H)-one]
protective power (antioxidizing power) of individual substances with anti-free radical activity: weakly protective

From patent US8372455B2, “Cosmetic composition with anti-free radical activity” (LVMH Recherche, priority 2006, dated 2013)
